Test results published in the supplement of paper PMC10849652.
This is one part of the list.

Amino acid sequences for entries named in this document (tags omitted). A change or cut given only in a name is not applied to a line headed by its entry.
UniProt Q7RTP6, whole entry, looked up: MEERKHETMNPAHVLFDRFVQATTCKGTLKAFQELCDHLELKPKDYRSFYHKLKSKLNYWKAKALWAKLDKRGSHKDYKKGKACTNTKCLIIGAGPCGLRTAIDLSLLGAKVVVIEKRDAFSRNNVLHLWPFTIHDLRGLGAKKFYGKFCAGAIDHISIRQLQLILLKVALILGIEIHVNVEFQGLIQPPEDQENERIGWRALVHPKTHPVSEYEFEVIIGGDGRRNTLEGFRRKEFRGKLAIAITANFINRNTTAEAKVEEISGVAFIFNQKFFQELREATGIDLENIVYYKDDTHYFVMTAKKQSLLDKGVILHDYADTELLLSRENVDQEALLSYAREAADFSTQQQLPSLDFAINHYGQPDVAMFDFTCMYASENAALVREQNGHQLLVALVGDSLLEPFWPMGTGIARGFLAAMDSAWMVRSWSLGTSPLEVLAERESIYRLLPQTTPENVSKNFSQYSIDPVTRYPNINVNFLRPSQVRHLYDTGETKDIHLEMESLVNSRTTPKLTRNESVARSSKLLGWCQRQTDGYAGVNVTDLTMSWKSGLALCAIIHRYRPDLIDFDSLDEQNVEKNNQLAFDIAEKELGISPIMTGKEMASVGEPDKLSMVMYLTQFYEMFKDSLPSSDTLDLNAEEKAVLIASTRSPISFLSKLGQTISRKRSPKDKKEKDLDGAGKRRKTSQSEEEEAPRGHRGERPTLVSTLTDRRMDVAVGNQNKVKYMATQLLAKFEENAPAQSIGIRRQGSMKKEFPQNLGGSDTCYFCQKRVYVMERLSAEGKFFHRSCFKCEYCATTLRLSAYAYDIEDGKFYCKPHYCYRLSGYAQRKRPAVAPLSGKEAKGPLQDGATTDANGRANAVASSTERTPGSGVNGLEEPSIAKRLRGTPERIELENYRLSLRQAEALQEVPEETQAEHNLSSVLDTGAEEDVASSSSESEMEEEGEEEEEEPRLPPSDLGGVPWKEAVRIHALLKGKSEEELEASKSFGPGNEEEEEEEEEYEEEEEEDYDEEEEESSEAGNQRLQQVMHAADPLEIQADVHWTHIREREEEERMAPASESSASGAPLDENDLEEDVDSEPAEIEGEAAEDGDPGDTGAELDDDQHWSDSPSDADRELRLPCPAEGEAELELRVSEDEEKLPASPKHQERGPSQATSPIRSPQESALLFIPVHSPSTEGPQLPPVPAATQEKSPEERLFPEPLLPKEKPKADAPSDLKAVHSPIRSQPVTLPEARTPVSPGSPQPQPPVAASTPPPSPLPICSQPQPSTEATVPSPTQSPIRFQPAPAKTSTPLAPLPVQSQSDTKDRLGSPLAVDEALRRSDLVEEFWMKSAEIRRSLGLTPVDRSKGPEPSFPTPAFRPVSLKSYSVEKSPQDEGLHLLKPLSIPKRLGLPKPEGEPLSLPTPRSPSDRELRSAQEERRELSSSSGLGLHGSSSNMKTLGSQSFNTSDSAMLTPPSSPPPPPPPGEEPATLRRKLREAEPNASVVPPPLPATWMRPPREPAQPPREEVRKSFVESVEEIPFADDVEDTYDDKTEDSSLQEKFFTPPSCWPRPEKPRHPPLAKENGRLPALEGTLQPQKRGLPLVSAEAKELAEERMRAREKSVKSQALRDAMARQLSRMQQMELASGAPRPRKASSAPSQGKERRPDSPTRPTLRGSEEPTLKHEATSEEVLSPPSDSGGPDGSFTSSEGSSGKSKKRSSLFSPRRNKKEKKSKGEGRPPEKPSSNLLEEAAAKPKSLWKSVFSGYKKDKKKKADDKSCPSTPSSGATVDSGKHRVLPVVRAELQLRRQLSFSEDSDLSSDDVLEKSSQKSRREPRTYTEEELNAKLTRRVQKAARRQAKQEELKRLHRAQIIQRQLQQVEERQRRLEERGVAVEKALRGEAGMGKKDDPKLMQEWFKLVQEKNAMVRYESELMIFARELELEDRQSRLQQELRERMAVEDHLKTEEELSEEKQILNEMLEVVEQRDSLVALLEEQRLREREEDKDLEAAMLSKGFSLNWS
UniProt Q86YT6, whole entry, looked up: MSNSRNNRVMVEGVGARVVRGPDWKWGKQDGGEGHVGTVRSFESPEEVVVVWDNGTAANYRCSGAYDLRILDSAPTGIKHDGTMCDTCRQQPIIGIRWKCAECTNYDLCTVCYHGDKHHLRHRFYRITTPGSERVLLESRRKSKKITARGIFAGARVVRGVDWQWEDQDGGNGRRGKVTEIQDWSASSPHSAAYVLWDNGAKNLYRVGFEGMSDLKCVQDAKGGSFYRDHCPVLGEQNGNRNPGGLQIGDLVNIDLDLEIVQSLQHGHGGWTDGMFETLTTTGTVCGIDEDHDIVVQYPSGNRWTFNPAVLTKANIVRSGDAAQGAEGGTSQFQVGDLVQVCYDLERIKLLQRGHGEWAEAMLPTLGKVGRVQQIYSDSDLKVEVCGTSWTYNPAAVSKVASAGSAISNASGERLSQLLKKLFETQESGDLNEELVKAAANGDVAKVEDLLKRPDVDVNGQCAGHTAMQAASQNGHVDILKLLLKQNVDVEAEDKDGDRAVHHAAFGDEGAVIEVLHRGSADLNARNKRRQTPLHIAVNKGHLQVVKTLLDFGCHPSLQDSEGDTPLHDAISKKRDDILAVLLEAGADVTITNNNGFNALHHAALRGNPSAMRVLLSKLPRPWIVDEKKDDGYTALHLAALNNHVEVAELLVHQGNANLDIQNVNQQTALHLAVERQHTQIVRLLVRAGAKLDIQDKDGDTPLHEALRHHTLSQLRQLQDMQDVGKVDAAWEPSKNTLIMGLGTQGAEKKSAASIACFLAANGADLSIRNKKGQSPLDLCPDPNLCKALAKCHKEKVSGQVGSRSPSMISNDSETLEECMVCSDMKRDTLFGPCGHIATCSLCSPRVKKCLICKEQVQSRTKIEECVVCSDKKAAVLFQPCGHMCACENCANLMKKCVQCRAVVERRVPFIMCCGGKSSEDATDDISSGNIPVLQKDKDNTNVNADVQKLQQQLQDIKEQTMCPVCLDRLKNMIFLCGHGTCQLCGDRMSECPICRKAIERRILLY
UniProt Q14165: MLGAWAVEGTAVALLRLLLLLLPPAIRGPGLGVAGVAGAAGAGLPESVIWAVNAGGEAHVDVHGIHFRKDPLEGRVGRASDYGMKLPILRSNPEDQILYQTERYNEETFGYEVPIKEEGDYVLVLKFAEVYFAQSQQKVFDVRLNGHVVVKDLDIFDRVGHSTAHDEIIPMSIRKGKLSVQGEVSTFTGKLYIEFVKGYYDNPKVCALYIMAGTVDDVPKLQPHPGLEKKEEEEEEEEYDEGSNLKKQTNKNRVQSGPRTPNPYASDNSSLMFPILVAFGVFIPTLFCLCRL
UniProt Q9HAP2: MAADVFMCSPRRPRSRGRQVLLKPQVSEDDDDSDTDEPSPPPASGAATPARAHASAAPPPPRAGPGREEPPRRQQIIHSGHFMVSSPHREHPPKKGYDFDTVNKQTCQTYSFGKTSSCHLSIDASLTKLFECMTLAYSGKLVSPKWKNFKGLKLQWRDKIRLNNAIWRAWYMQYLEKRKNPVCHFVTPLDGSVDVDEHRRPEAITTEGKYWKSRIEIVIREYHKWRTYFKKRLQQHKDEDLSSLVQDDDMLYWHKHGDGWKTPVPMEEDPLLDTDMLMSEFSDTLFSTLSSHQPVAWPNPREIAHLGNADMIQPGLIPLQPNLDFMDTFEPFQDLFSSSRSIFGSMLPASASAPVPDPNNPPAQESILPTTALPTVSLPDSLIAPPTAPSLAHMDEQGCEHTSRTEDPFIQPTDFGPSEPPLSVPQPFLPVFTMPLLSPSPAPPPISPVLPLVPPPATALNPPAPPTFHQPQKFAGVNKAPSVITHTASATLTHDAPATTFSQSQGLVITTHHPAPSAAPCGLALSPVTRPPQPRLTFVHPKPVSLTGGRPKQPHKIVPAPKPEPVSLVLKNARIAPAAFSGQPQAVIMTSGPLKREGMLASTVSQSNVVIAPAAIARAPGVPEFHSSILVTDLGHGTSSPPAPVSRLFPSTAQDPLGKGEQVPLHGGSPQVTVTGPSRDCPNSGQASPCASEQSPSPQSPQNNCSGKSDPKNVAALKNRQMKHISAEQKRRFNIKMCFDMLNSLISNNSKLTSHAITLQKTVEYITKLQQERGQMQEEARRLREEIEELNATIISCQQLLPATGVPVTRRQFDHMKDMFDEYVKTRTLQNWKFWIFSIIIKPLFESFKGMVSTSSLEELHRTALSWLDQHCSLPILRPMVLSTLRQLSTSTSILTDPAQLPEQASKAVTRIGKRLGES
UniProt P29372, whole entry, looked up: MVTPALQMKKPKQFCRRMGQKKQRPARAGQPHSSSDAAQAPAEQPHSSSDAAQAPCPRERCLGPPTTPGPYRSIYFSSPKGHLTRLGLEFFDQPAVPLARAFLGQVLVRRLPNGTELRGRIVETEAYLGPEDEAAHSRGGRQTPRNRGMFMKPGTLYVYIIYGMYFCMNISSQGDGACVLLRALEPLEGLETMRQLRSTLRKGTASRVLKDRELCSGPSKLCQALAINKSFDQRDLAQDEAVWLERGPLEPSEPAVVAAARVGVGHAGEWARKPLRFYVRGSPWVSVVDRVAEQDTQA
UniProt Q8NHP6: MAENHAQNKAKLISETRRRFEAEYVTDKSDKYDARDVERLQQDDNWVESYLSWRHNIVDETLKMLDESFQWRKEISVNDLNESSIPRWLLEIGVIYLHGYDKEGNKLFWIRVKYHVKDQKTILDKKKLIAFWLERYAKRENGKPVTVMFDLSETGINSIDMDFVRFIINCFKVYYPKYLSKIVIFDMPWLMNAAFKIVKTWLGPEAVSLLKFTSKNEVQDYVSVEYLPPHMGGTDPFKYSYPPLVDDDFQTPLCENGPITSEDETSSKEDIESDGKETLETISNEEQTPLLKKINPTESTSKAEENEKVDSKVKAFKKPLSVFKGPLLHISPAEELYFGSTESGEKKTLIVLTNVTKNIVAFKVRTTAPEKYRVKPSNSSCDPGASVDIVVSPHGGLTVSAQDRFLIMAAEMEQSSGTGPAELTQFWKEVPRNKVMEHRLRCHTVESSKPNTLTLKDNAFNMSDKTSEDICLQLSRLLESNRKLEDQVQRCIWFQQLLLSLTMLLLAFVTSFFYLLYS
UniProt P49959: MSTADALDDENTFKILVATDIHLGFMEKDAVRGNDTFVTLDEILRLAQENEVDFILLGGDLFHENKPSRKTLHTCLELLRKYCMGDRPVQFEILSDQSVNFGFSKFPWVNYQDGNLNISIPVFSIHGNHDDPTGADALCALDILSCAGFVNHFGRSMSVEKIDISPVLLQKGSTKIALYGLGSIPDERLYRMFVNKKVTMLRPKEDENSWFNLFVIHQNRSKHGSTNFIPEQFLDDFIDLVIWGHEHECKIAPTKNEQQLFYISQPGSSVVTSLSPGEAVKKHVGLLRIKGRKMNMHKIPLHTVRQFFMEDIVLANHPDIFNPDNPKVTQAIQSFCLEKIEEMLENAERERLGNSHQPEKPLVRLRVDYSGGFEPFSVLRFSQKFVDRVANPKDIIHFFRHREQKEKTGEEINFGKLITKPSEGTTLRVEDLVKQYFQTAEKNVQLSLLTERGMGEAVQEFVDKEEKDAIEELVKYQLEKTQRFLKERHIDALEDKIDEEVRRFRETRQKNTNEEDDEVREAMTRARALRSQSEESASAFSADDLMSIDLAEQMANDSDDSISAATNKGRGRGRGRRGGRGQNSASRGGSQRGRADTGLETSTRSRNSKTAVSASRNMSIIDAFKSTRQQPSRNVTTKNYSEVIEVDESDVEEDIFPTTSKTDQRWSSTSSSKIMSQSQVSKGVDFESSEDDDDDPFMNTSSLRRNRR
UniProt Q9BUB5: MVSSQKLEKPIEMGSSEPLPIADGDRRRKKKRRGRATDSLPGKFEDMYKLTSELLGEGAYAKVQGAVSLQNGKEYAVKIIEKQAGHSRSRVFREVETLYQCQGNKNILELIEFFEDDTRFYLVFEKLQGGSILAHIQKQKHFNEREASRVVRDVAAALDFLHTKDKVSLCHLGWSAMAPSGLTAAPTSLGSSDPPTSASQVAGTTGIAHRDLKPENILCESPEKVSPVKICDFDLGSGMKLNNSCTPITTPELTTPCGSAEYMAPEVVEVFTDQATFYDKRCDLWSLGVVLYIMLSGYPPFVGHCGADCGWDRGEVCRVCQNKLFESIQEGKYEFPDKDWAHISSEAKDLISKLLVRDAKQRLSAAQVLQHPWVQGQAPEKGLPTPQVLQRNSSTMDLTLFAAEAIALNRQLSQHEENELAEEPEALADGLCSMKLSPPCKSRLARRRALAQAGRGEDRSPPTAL
UniProt Q9BU76: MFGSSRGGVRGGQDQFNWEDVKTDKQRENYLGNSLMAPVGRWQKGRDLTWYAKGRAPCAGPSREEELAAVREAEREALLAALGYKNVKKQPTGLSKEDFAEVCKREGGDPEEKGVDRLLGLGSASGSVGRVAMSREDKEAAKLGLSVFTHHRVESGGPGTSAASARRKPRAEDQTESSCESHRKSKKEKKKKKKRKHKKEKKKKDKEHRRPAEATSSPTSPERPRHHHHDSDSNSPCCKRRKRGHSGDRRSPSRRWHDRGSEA

Key:
Assay in all cases: log2 fold change, soluble protein after heating vs DMSO (PISA); higher = thermal stabilisation; K562 lysate, 10 uM; active = over 0.2 and 3.5 SD of the protein, either way, in both replicates (recomputed)
alvocidib = compound: CN1CC[C@H](c2c(O)cc(O)c3c(=O)cc(-c4ccccc4Cl)oc23)[C@H](O)C1 [alvocidib]
Procedure, shortened: (§1)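 A 30 min treatment with 10 μM compound was applied to crude K562 extract at 1 mg/mL protein in PBS pH 7.4 with 1 mM MgCl2. Heating for 3 min spanned 48°C-58°C, after which aliquots were pooled, adjusted to 0.5% NP-40 at 4°C and spun at 21,000xg for 90 min. TMTpro 16plex LC-MS/MS of the supernatant, with channel sums equalised, gave values recorded as log-two fold change in thermal stability against solvent controls, from duplicates.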

Tubastatin A = compound: CN1CCc2c(c3ccccc3n2Cc2ccc(C(=O)NO)cc2)C1 [Tubastatin A]
Procedure, shortened: as §1

[1] = compound: CNC(=O)C1=CC=CC=C1NC2=NC(=NC=C2Cl)NC3=C(C=C(C=C3)N4CCOCC4)OC
Procedure, shortened: as §1

defactinib = compound: CNC(=O)c1ccc(Nc2ncc(C(F)(F)F)c(NCc3nccnc3N(C)S(C)(=O)=O)n2)cc1 [defactinib]
Procedure, shortened: as §1

[2] = compound: CNc1nc(-c2ccc3c(N)n[nH]c3c2)cc(N2C[C@@H](C(=O)NC3CCCCC3)CC[C@H]2C)n1
Procedure, shortened: as §1

encorafenib = compound: COC(=O)N[C@@H](C)CNc1nccc(-c2cn(C(C)C)nc2-c2cc(Cl)cc(NS(C)(=O)=O)c2F)n1 [encorafenib]
Procedure, shortened: as §1

[3] = compound: COC(=O)[C@H](CCSC)NC(=O)C1=C(C=C(C=C1)NC[C@H](CS)N)C2=CC=CC=C2
Procedure, shortened: as §1

alisertib = compound: COc1cc(Nc2ncc3c(n2)-c2ccc(Cl)cc2C(c2c(F)cccc2OC)=NC3)ccc1C(=O)O [alisertib]
Procedure, shortened: as §1

[4] = compound: COc1cc2nc(-c3cc(F)ccc3O)nc(N[C@@H]3CNC[C@H]3C(C)(C)O)c2cc1OC
Procedure, shortened: as §1

gefitinib = compound: COc1cc2ncnc(Nc3ccc(F)c(Cl)c3)c2cc1OCCCN1CCOCC1 [gefitinib]
Procedure, shortened: as §1

lapatinib = compound: CS(=O)(=O)CCNCc1ccc(-c2ccc3ncnc(Nc4ccc(OCc5cccc(F)c5)c(Cl)c4)c3c2)o1 [lapatinib]
Procedure, shortened: as §1

pictilisib = compound: CS(=O)(=O)N1CCN(Cc2cc3nc(-c4cccc5[nH]ncc45)nc(N4CCOCC4)c3s2)CC1 [pictilisib]
Procedure, shortened: as §1

crizotinib = compound: C[C@@H](Oc1cc(-c2cnn(C3CCNCC3)c2)cnc1N)c1c(Cl)ccc(F)c1Cl [crizotinib]
Procedure, shortened: as §1

[5] = compound: C[C@H](C1=CC=C(C=C1)C(=O)NC2=C3C=CNC3=NC=C2)N
Procedure, shortened: as §1

duvelisib = compound: C[C@H](Nc1ncnc2nc[nH]c12)c1cc2cccc(Cl)c2c(=O)n1-c1ccccc1 [duvelisib]
Procedure, shortened: as §1

gandotinib = compound: Cc1cc(Nc2cc(CN3CCOCC3)c3nc(C)c(Cc4ccc(Cl)cc4F)n3n2)n[nH]1 [gandotinib]
Procedure, shortened: as §1

tozasertib = compound: Cc1cc(Nc2cc(N3CCN(C)CC3)nc(Sc3ccc(NC(=O)C4CC4)cc3)n2)n[nH]1 [tozasertib]
Procedure, shortened: as §1

doramapimod = compound: Cc1ccc(-n2nc(C(C)(C)C)cc2NC(=O)Nc2ccc(OCCN3CCOCC3)c3ccccc23)cc1 [doramapimod]
Procedure, shortened: as §1

bafetinib = compound: Cc1ccc(NC(=O)c2ccc(CN3CC[C@H](N(C)C)C3)c(C(F)(F)F)c2)cc1Nc1nccc(-c2cncnc2)n1 [bafetinib]
Procedure, shortened: as §1

[6] = compound: Cc1cccc(CC(=O)N2CCc3c2ccc(-c2cn(C)c4ncnc(N)c24)c3F)n1
Procedure, shortened: as §1

Target	log2 fold change (alvocidib)	log2 fold change (Tubastatin A)	log2 fold change [1]	log2 fold change (defactinib)	log2 fold change [2]	log2 fold change (encorafenib)	log2 fold change [3]	log2 fold change (alisertib)	log2 fold change [4]	log2 fold change (gefitinib)	log2 fold change (lapatinib)	log2 fold change (pictilisib)	log2 fold change (crizotinib)	log2 fold change [5]	log2 fold change (duvelisib)	log2 fold change (gandotinib)	log2 fold change (tozasertib)	log2 fold change (doramapimod)	log2 fold change (bafetinib)	log2 fold change [6]
MICAL3 (UniProt Q7RTP6)	inactive: -0.041	inactive: 0.009	inactive: 0.027	inactive: -0.006	inactive: 0.011	inactive: 0.001	inactive: 0.013	inactive: 0.03	inactive: 0.008	inactive: 0.006	inactive: 0.006	inactive: -0.015	inactive: 0.001	inactive: -0.058	inactive: 0	inactive: 0.033	inactive: -0.024	inactive: -0.007	inactive: -0.03	inactive: 0.027
MIB1 (UniProt Q86YT6)	inactive: -0.074	inactive: 0.031	inactive: 0.006	inactive: -0.034	inactive: -0.002	inactive: 0.026	inactive: 0.028	inactive: -0.021	inactive: 0.134	inactive: -0.086	inactive: -0.031	inactive: -0.034	inactive: -0.014	inactive: -0.096	inactive: 0.053	inactive: -0.057	inactive: 0.001	inactive: 0.02	inactive: 0.051	inactive: -0.021
MRPL19 (UniProt P49406)	inactive: -0.056	inactive: -0.119	inactive: -0.036	inactive: -0.005	inactive: -0.052	inactive: -0.003	inactive: 0.042	inactive: 0.037	inactive: -0.03	inactive: 0.043	inactive: -0.026	inactive: -0.024	inactive: -0.071	inactive: -0.094	inactive: -0.026	inactive: 0.029	inactive: 0.014	inactive: 0.011	inactive: -0.048	inactive: 0.051
MRPL10 isoform 2 (UniProt Q7Z7H8)	inactive: 0.024	inactive: -0.013	inactive: -0.035	inactive: 0.023	inactive: 0.074	inactive: 0.031	inactive: 0.183	inactive: 0.028	inactive: -0.025	inactive: -0.019	inactive: -0.02	inactive: -0.041	inactive: -0.104	inactive: 0.152	inactive: 0.034	inactive: -0.037	inactive: -0.01	inactive: 0.104	inactive: -0.059	inactive: -0.012
MMS19 isoform 8 (UniProt Q96T76)	inactive: 0.008	inactive: -0.144	inactive: 0	inactive: -0.027	inactive: 0.007	inactive: 0.014	inactive: 0.128	inactive: 0.002	inactive: 0.001	inactive: -0.022	inactive: -0.03	inactive: -0.04	inactive: -0.074	inactive: 0.049	inactive: -0.003	inactive: -0.101	inactive: -0.004	inactive: 0.023	inactive: -0.066	inactive: 0.004
MINPP1 (UniProt Q9UNW1)	inactive: 0.033	inactive: 0.013	inactive: 0.011	inactive: 0.026	inactive: -0.073	inactive: 0.007	inactive: -0.029	inactive: -0.012	inactive: 0.014	inactive: 0.016	inactive: 0	inactive: 0.018	inactive: 0.055	inactive: -0.003	inactive: 0	inactive: 0.013	inactive: -0.007	inactive: -0.009	inactive: 0.03	inactive: -0.01
MLEC (UniProt Q14165)	inactive: 0.004	inactive: 0.036	inactive: 0.005	inactive: -0.004	inactive: -0.073	inactive: 0	inactive: -0.023	inactive: 0.024	inactive: 0.011	inactive: -0.002	inactive: -0.017	inactive: -0.004	inactive: 0.014	inactive: 0.057	inactive: -0.019	inactive: 0.005	inactive: 0.01	inactive: -0.019	inactive: 0.004	inactive: -0.026
MICB, A0A140T979	inactive: 0.01	inactive: -0.005	inactive: -0.09	inactive: 0.021	inactive: 0.084	inactive: -0.027	active: -0.506	inactive: -0.043	active: 0.804	inactive: -0.012	inactive: -0.169	inactive: -0.074	inactive: -0.067	inactive: -0.042	inactive: 0.052	inactive: 0.011	inactive: -0.177	inactive: -0.003	inactive: -0.001	inactive: 0.027
MLXIP (UniProt Q9HAP2)	inactive: -0.035	inactive: -0.016	inactive: -0.049	inactive: -0.029	inactive: -0.017	inactive: 0.027	inactive: -0.016	inactive: 0.002	inactive: -0.051	inactive: -0.047	inactive: -0.009	inactive: -0.049	inactive: -0.023	inactive: -0.052	inactive: -0.078	inactive: -0.032	inactive: 0.019	inactive: 0.009	inactive: -0.01	inactive: 0.043
MPG (UniProt P29372)	inactive: -0.021	inactive: -0.063	inactive: -0.017	inactive: -0.008	inactive: 0.072	inactive: -0.014	inactive: 0.075	inactive: -0.048	inactive: 0.023	inactive: 0.014	inactive: -0.029	inactive: -0.021	inactive: 0.004	inactive: 0.031	inactive: -0.026	inactive: -0.01	inactive: 0.057	inactive: -0.028	inactive: 0.023	inactive: 0.05
MOSPD2 (UniProt Q8NHP6)	inactive: -0.028	inactive: -0.034	inactive: -0.03	inactive: 0.11	inactive: -0.015	inactive: 0.053	inactive: -0.026	inactive: 0.125	inactive: -0.027	inactive: -0.039	inactive: 0.01	inactive: -0.036	inactive: -0.041	inactive: -0.076	inactive: -0.02	inactive: 0.003	inactive: 0.021	inactive: 0.022	inactive: -0.009	inactive: 0.1
MLH1 (UniProt P40692)	inactive: 0.011	inactive: -0.167	inactive: -0.039	inactive: 0.004	inactive: -0.013	inactive: 0.044	inactive: 0.129	inactive: -0.01	inactive: 0.048	inactive: -0.053	inactive: -0.006	inactive: 0.001	inactive: -0.085	inactive: -0.035	inactive: 0.016	inactive: -0.04	inactive: -0.043	inactive: 0.013	inactive: -0.063	inactive: 0.038
MRE11 isoform 3 (UniProt P49959)	inactive: -0.008	inactive: 0.02	inactive: -0.007	inactive: 0.019	inactive: 0.039	inactive: 0.001	inactive: -0.012	inactive: -0.01	inactive: -0.012	inactive: 0.01	inactive: 0.019	inactive: 0.01	inactive: 0.013	inactive: 0.001	inactive: -0.018	inactive: -0.018	inactive: 0.028	inactive: -0.023	inactive: 0.003	inactive: 0.018
MKNK1 (UniProt Q9BUB5)	inactive: 0.021	inactive: -0.023	inactive: 0.049	inactive: -0.053	inactive: 0.009	inactive: 0.054	inactive: -0.022	inactive: 0.022	inactive: 0.015	inactive: 0.134	inactive: -0.029	inactive: -0.035	inactive: -0.065	inactive: 0.039	inactive: 0.009	inactive: -0.007	inactive: -0.007	inactive: -0.021	inactive: 0.005	inactive: 0.002
MPHOSPH10 (UniProt O00566)	inactive: 0.052	inactive: -0.068	inactive: 0.044	inactive: 0.035	inactive: -0.055	inactive: -0.012	inactive: 0.041	inactive: 0.049	inactive: -0.037	inactive: -0.004	inactive: 0.026	inactive: 0.03	inactive: -0.033	inactive: 0.113	inactive: 0.005	inactive: -0.016	inactive: 0.029	inactive: 0.009	inactive: -0.048	inactive: -0.024
MMTAG2 (UniProt Q9BU76)	inactive: -0.001	inactive: -0.024	inactive: -0.036	inactive: 0.033	inactive: 0.049	inactive: 0.025	inactive: 0.017	inactive: 0.025	inactive: -0.014	inactive: 0.021	inactive: -0.045	inactive: 0.008	inactive: -0.006	inactive: 0.051	inactive: -0.023	inactive: -0.073	inactive: -0.027	inactive: -0.008	inactive: -0.051	inactive: 0.014

Copied from the results shown for reference:
Target	log2 fold change (alvocidib)	log2 fold change (Tubastatin A)	log2 fold change [1]	log2 fold change (defactinib)	log2 fold change [2]	log2 fold change (encorafenib)	log2 fold change [3]	log2 fold change (alisertib)	log2 fold change [4]	log2 fold change (gefitinib)	log2 fold change (lapatinib)	log2 fold change (pictilisib)	log2 fold change (crizotinib)	log2 fold change [5]	log2 fold change (duvelisib)	log2 fold change (gandotinib)	log2 fold change (tozasertib)	log2 fold change (doramapimod)	log2 fold change (bafetinib)	log2 fold change [6]
MRPL19 (UniProt P49406)	inactive: -0.056	inactive: -0.119	inactive: -0.036	inactive: -0.005	inactive: -0.052	inactive: -0.003	inactive: 0.042	inactive: 0.037	inactive: -0.03	inactive: 0.043	inactive: -0.026	inactive: -0.024	inactive: -0.071	inactive: -0.094	inactive: -0.026	inactive: 0.029	inactive: 0.014	inactive: 0.011	inactive: -0.048	inactive: 0.051
MRPL10 isoform 2 (UniProt Q7Z7H8)	inactive: 0.024	inactive: -0.013	inactive: -0.035	inactive: 0.023	inactive: 0.074	inactive: 0.031	inactive: 0.183	inactive: 0.028	inactive: -0.025	inactive: -0.019	inactive: -0.02	inactive: -0.041	inactive: -0.104	inactive: 0.152	inactive: 0.034	inactive: -0.037	inactive: -0.01	inactive: 0.104	inactive: -0.059	inactive: -0.012
MMS19 isoform 8 (UniProt Q96T76)	inactive: 0.008	inactive: -0.144	inactive: 0	inactive: -0.027	inactive: 0.007	inactive: 0.014	inactive: 0.128	inactive: 0.002	inactive: 0.001	inactive: -0.022	inactive: -0.03	inactive: -0.04	inactive: -0.074	inactive: 0.049	inactive: -0.003	inactive: -0.101	inactive: -0.004	inactive: 0.023	inactive: -0.066	inactive: 0.004
MINPP1 (UniProt Q9UNW1)	inactive: 0.033	inactive: 0.013	inactive: 0.011	inactive: 0.026	inactive: -0.073	inactive: 0.007	inactive: -0.029	inactive: -0.012	inactive: 0.014	inactive: 0.016	inactive: 0	inactive: 0.018	inactive: 0.055	inactive: -0.003	inactive: 0	inactive: 0.013	inactive: -0.007	inactive: -0.009	inactive: 0.03	inactive: -0.01
